{"sequences": {"note": "Chains of the proteins cited; added tags and fusions are not shown.", "UniProt Q9UKV5": "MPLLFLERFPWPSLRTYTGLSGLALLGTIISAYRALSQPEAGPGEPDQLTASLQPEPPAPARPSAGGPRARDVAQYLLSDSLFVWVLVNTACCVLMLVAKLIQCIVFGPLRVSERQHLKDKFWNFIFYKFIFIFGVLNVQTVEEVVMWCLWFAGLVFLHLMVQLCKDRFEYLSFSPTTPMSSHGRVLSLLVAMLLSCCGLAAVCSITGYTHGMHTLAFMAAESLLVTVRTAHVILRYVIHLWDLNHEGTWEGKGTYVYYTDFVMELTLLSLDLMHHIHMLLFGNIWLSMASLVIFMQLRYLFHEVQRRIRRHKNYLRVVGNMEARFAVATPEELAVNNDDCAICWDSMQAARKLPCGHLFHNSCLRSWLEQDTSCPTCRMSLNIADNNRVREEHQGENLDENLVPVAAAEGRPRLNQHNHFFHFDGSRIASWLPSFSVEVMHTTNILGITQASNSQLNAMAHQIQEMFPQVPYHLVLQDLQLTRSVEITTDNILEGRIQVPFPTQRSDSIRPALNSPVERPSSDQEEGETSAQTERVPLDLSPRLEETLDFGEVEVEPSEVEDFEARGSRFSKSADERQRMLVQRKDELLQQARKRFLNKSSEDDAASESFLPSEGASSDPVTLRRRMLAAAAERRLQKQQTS"}, "source": "paper PMC11749472", "assay_in_all_cases": "co-IP; HEK293T lysates in co-IP buffer (50 mM Tris-HCl pH 7.4, 150 mM NaCl, 1% NP-40, 1 mM EDTA, 5% glycerol), mouse anti-Flag beads at 4°C overnight, Western blot; for ARM-TIR also with USP13 OE, USP13 KD (siRNA cocktail) or USP13^AE OE", "key": {"[1]": {"molecular_target": "T1, SARM1-Flag (human), Q6SZW1", "T1 chain": "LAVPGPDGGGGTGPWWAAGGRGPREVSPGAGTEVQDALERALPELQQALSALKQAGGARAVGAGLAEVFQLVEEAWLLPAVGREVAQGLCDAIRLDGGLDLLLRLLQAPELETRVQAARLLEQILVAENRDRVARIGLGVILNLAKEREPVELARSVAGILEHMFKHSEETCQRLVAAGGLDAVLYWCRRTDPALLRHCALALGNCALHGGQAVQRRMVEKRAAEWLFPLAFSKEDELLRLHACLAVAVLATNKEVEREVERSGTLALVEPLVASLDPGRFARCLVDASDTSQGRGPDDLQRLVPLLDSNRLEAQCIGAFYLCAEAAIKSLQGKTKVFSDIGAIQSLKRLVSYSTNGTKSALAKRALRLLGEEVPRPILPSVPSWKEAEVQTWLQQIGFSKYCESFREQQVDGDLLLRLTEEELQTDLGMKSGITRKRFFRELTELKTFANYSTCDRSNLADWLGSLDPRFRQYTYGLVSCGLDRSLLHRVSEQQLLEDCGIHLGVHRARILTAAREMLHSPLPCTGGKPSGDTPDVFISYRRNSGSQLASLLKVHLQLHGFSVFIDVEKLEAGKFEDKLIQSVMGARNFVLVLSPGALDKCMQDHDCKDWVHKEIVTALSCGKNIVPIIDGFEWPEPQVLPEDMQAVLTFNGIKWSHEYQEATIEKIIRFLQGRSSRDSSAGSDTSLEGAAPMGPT", "conditions": "remark: other sources report otherwise"}, "[2]": {"molecular_target": "T2, USP13-Flag (human), Q92995", "T2 chain": "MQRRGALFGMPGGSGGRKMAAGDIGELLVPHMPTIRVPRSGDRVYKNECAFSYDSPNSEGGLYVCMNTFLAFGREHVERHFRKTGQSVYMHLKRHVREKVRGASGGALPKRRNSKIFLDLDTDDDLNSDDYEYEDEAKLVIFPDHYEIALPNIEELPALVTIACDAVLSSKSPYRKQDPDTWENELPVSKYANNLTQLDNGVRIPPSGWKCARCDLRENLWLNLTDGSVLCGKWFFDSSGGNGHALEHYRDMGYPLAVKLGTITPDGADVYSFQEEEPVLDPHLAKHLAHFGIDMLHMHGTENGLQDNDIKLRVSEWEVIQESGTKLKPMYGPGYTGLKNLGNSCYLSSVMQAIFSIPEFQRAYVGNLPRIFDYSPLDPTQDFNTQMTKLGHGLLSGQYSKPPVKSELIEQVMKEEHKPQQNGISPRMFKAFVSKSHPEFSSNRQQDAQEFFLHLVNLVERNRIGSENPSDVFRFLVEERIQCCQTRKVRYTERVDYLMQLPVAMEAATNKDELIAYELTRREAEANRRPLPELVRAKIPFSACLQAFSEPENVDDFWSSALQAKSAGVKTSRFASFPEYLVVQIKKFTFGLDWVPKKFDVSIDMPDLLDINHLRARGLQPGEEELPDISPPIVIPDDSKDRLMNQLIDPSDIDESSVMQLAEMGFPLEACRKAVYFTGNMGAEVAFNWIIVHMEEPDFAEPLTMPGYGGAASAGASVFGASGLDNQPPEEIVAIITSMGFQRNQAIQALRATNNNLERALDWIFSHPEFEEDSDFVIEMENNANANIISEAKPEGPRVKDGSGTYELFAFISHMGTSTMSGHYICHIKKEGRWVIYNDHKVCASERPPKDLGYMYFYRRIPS", "conditions": "remark: other sources report otherwise"}, "GP78-Flag (human)": {"molecular_target": "GP78-Flag (human) (UniProt Q9UKV5)"}}, "note": "No constants are given. Whether binding was seen depends on the method and setting. In cells and extracts the contact can be indirect. Some entries that bind do so weakly or less than the wild type. For part of these data: Sequences can lack the tags named with a protein.", "data": [{"binder": "WT USP13 (myc-USP13 or USP13-HA), Q92995 1-863 (enzyme) MQRRGALFGMPGGSGGRKMAAGDIGELLVPHMPTIRVPRSGDRVYKNECAFSYDSPNSEGGLYVCMNTFLAFGREHVERHFRKTGQSVYMHLKRHVREKVRGASGGALPKRRNSKIFLDLDTDDDLNSDDYEYEDEAKLVIFPDHYEIALPNIEELPALVTIACDAVLSSKSPYRKQDPDTWENELPVSKYANNLTQLDNGVRIPPSGWKCARCDLRENLWLNLTDGSVLCGKWFFDSSGGNGHALEHYRDMGYPLAVKLGTITPDGADVYSFQEEEPVLDPHLAKHLAHFGIDMLHMHGTENGLQDNDIKLRVSEWEVIQESGTKLKPMYGPGYTGLKNLGNSCYLSSVMQAIFSIPEFQRAYVGNLPRIFDYSPLDPTQDFNTQMTKLGHGLLSGQYSKPPVKSELIEQVMKEEHKPQQNGISPRMFKAFVSKSHPEFSSNRQQDAQEFFLHLVNLVERNRIGSENPSDVFRFLVEERIQCCQTRKVRYTERVDYLMQLPVAMEAATNKDELIAYELTRREAEANRRPLPELVRAKIPFSACLQAFSEPENVDDFWSSALQAKSAGVKTSRFASFPEYLVVQIKKFTFGLDWVPKKFDVSIDMPDLLDINHLRARGLQPGEEELPDISPPIVIPDDSKDRLMNQLIDPSDIDESSVMQLAEMGFPLEACRKAVYFTGNMGAEVAFNWIIVHMEEPDFAEPLTMPGYGGAASAGASVFGASGLDNQPPEEIVAIITSMGFQRNQAIQALRATNNNLERALDWIFSHPEFEEDSDFVIEMENNANANIISEAKPEGPRVKDGSGTYELFAFISHMGTSTMSGHYICHIKKEGRWVIYNDHKVCASERPPKDLGYMYFYRRIPS", "values": [{"measurement": "binding", "setting": "[1]", "result": "binds"}]}, {"binder": "endogenous SARM1 (HEK293T), Q6SZW1 28-724 (protein) LAVPGPDGGGGTGPWWAAGGRGPREVSPGAGTEVQDALERALPELQQALSALKQAGGARAVGAGLAEVFQLVEEAWLLPAVGREVAQGLCDAIRLDGGLDLLLRLLQAPELETRVQAARLLEQILVAENRDRVARIGLGVILNLAKEREPVELARSVAGILEHMFKHSEETCQRLVAAGGLDAVLYWCRRTDPALLRHCALALGNCALHGGQAVQRRMVEKRAAEWLFPLAFSKEDELLRLHACLAVAVLATNKEVEREVERSGTLALVEPLVASLDPGRFARCLVDASDTSQGRGPDDLQRLVPLLDSNRLEAQCIGAFYLCAEAAIKSLQGKTKVFSDIGAIQSLKRLVSYSTNGTKSALAKRALRLLGEEVPRPILPSVPSWKEAEVQTWLQQIGFSKYCESFREQQVDGDLLLRLTEEELQTDLGMKSGITRKRFFRELTELKTFANYSTCDRSNLADWLGSLDPRFRQYTYGLVSCGLDRSLLHRVSEQQLLEDCGIHLGVHRARILTAAREMLHSPLPCTGGKPSGDTPDVFISYRRNSGSQLASLLKVHLQLHGFSVFIDVEKLEAGKFEDKLIQSVMGARNFVLVLSPGALDKCMQDHDCKDWVHKEIVTALSCGKNIVPIIDGFEWPEPQVLPEDMQAVLTFNGIKWSHEYQEATIEKIIRFLQGRSSRDSSAGSDTSLEGAAPMGPT", "values": [{"measurement": "binding", "setting": "[2]", "result": "binds"}]}, {"binder": "endogenous SARM1 (HEK293T) (protein, UniProt Q6SZW1 28-724) LAVPGPDGGGGTGPWWAAGGRGPREVSPGAGTEVQDALERALPELQQALSALKQAGGARAVGAGLAEVFQLVEEAWLLPAVGREVAQGLCDAIRLDGGLDLLLRLLQAPELETRVQAARLLEQILVAENRDRVARIGLGVILNLAKEREPVELARSVAGILEHMFKHSEETCQRLVAAGGLDAVLYWCRRTDPALLRHCALALGNCALHGGQAVQRRMVEKRAAEWLFPLAFSKEDELLRLHACLAVAVLATNKEVEREVERSGTLALVEPLVASLDPGRFARCLVDASDTSQGRGPDDLQRLVPLLDSNRLEAQCIGAFYLCAEAAIKSLQGKTKVFSDIGAIQSLKRLVSYSTNGTKSALAKRALRLLGEEVPRPILPSVPSWKEAEVQTWLQQIGFSKYCESFREQQVDGDLLLRLTEEELQTDLGMKSGITRKRFFRELTELKTFANYSTCDRSNLADWLGSLDPRFRQYTYGLVSCGLDRSLLHRVSEQQLLEDCGIHLGVHRARILTAAREMLHSPLPCTGGKPSGDTPDVFISYRRNSGSQLASLLKVHLQLHGFSVFIDVEKLEAGKFEDKLIQSVMGARNFVLVLSPGALDKCMQDHDCKDWVHKEIVTALSCGKNIVPIIDGFEWPEPQVLPEDMQAVLTFNGIKWSHEYQEATIEKIIRFLQGRSSRDSSAGSDTSLEGAAPMGPT", "values": [{"measurement": "binding", "setting": "GP78-Flag (human)", "result": "binds"}]}]}
